Measurements reported in paper PMC12147355 (Molecular Medicine, 2025).

experiment: peptide made by a vendor; conditions: whole synthesis, HPLC analysis

In order of falling “purity (crude or final not stated)” value:
1. KFAKFAKKFAKFAKKFAKFAK-YTRDLVYKDPARPKIQKTATF-CONH2  98.9%
2. KFAKFAKKFAKFAKKFAKFAK-YTRDLVYKDPARPKIQKTSTF-CONH2  98.9%
3. KFAKFAKKFAKFAKKFAKFAK-YTRDLVYKDPARPKIQKTC(Acm)TF-CONH2  98.5%
4. KFAKFAKKFAKFAKKFAKFAK-NH2  98.1%
5. KFAKFAKKFAKFAKKFAKFAK-QC(Acm)HC(Acm)GKC(Acm)DSDSTDC(Acm)T-CONH2  97.8%
6. KFAKFAKKFAKFAKKFAKFAK-YTRDLVYKDPARPKIQKTATF - QAHAGKADSDSTDAT-CONH2  97.7%
7. KFAKFAKKFAKFAKKFAKFAK-YTRDLVYKDPARPKIQKTSTF- QSHSGKSDSDSTDST-CONH2  96.5%
8. KFAKFAKKFAKFAKKFAKFAK-QSHSGKSDSDSTDST-CONH2  95.7%
9. KFAKFAKKFAKFAKKFAKFAK-YTRDLVYKDPARPKIQKTCTF-CONH2  95.7%
10. KFAKFAKKFAKFAKKFAKFAK-QAHAGKADSDSTDAT-CONH2  95.6%
11. KFAKFAKKFAKFAKKFAKFAK-QCHCGKCDSDSTDCT-CONH2  95.5%
12. KFAKFAKKFAKFAKKFAKFAK-YTRDLVYKDPARPKIQKTC(Acm)TF - QC(Acm)HC(Acm)GKC(Acm)DSDST DC(Acm)T -CONH2  95.3%
13. KFAKFAKKFAKFAKKFAKFAK-YTRDLVYKDPARPKIQKTCTF-QCHCGKCDSDSTDCT-CONH2  93.8%

Ends that are not written are not given here.
